Values from PubChem BioAssay AID1259254 (NCATS, 2017)
Here is one part, drawn at random, of about 59,000 deposited reagents. About 1,550 of all reagents (2.6%) count as active. 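G2 share is only a proxy for re-replication; each gene was hit by three separate siRNAs, and active genes were retested.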 The numbers tell different reagents against one gene apart. Not all columns of the deposit are shown. No sequences are given here. Not stated in the record: the amount of reagent.

Screen: 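Finding genes that stop cells copying their DNA twice in one cycle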 (primary screen)
System: human HCT116 colorectal cancer cells
Knock-down reagent: single siRNA against human genes
Time to read-out: 3 days
Detection: 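Imaged Hoechst DNA stain sorts each cell into a cycle phase by DNA amount; per plate, G2 fraction set to 0% for non-targeting and 100% for GMNN siRNA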
Scale: G2 robust z-score and G2 cells, % of GMNN control: higher = more G2 cells, more excess DNA replication
Call rule: 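Active siRNAs have a G2 robust z of 5 or more median absolute deviations over the median, which in these data means about 38% or higher of GMNN control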

How did the screen score LIPI #1?
G2 robust z-score: 2.24; G2 cells, % of GMNN control: 18.8; Call: inactive

With LIPI #2, what was measured?
G2 robust z-score: -1.1; G2 cells, % of GMNN control: -4.78; Call: inactive

What did the screen give for LIPI #3?
G2 robust z-score: 0.0391; G2 cells, % of GMNN control: 3.24; Call: inactive

For TRIM77 #1, what does the deposit list?
G2 robust z-score: 0.958; G2 cells, % of GMNN control: 9.71; Call: inactive

For TRIM77 #2, how do the results read?
G2 robust z-score: -0.594; G2 cells, % of GMNN control: -1.21; Call: inactive

With TRIM77 #3, what was measured?
G2 robust z-score: 0.477; G2 cells, % of GMNN control: 6.32; Call: inactive

With IL17RB #1, what does the deposit list?
G2 robust z-score: -0.413; G2 cells, % of GMNN control: 0.0643; Call: inactive

For IL17RB #2, how do the results read?
G2 robust z-score: -1.22; G2 cells, % of GMNN control: -5.62; Call: inactive

With IL17RB #3, what does the deposit list?
G2 robust z-score: -0.583; G2 cells, % of GMNN control: -1.13; Call: inactive

Which result is listed for NLRP3 #1?
G2 robust z-score: -0.978; G2 cells, % of GMNN control: -3.91; Call: inactive

For NLRP3 #2, what does the deposit list?
G2 robust z-score: -0.849; G2 cells, % of GMNN control: -3; Call: inactive

For NLRP3 #3, what does the deposit list?
G2 robust z-score: 0.551; G2 cells, % of GMNN control: 6.84; Call: inactive

Entries listed so far whose target name begins with L or l (3):
LIPI #1 — G2 robust z-score: 2.24; G2 cells, % of GMNN control: 18.8; Call: inactive
LIPI #2 — G2 robust z-score: -1.1; G2 cells, % of GMNN control: -4.78; Call: inactive
LIPI #3 — G2 robust z-score: 0.0391; G2 cells, % of GMNN control: 3.24; Call: inactive
